One substance from paper PMC8898358 can be followed below.

This assay deals with T1, OTU domain-containing protein 1 (human (endogenous in 786-O and ACHN)) (UniProt Q5VV17).
T1 sequence: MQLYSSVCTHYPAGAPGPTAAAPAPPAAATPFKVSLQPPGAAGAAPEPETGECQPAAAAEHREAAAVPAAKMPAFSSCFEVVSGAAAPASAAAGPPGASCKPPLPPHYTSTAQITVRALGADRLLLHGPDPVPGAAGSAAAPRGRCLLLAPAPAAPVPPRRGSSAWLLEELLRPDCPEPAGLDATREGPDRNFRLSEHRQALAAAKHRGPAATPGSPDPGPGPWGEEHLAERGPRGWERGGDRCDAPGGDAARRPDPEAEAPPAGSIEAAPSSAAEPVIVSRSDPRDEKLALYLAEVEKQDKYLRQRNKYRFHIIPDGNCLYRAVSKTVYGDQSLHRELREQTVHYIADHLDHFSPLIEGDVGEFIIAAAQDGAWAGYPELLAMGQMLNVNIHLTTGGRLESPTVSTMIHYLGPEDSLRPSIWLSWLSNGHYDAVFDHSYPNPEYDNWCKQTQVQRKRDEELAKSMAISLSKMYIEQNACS
The experiment in a line: co-IP; endogenous proteins; cells lysed in RIPA buffer, protein A+G beads with IgG or a primary antibody (OTUD1 or PTEN), beads washed 6 times with RIPA buffer, Western blot; 786-O and ACHN cells. In general terms: In western blotting, separated proteins are transferred to a membrane and probed.

No constants are given. Whether binding was seen depends on the method and setting. Binding seen in cells or lysates may run through a third protein.

Consider “AKT (human (endogenous in 786-O)) (enzyme)”, for which the binding result is listed as “no binding”.
